The target of series [1] is T1, PcaV (Streptomyces coelicolor) (UniProt Q9XAM6).
T1 sequence (looked up, limits assumed): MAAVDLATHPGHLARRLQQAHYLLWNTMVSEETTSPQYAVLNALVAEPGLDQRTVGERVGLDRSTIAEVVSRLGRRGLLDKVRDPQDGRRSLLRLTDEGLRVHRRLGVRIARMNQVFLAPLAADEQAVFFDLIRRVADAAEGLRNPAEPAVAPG
Kind of series: EMSA. The conditions noted are these: 5 mM protocatechuic acid (PCA), complex disrupted; EMSA: 50 mM Tris-HCl, 50 mM KCl, 5 mM MgCl2, 1 mM EDTA, 5% glycerol, 0.1 ug poly(dI-dC), 1 mM DTT, 30 C 20 min (+30 min with ligand); recombinant protein; protein details: N-terminal His-TEV, removed by TEV protease; label: 5' IRD700 on both strands.

In series [2] the target is T2, Van2 I110V,M113S,N114A (Streptomyces coelicolor) (UniProt Q9XAM6).
T2 sequence (looked up, limits assumed): T1 sequence (looked up, limits assumed) with I110V, M113S, N114A
Kind of series: EMSA. The conditions noted are these: EMSA: 50 mM Tris-HCl, 50 mM KCl, 5 mM MgCl2, 1 mM EDTA, 5% glycerol, 0.1 ug poly(dI-dC), 1 mM DTT, 30 C 20 min (+30 min with ligand), recombinant protein, protein details: N-terminal His-TEV, removed by TEV protease, label: 5' IRD700 on both strands. On the technique in general: In EMSA bound probe runs differently from free probe, usually more slowly.

Residue numbers refer to the chain shown, from its start. The exact form of at least one protein or probe is not confirmed. For part of these data: Negatives hold for the conditions tested. Protein sequences can lack the tags named with them. For part of these data: The comparison behind a weaker result is the experiment's own reference, which may not be listed here.

Consider “TTGACTATACTCAGTGCCCTGACTATGATACT (double strand) [PV Probe (IR700 duplex)]”, for which the binding result in series [1] is listed as “no binding”; in series [2] (2.5-12.5 mM protocatechuic acid (PCA), disruption similar to vanillin), “binds more weakly”; in series [2] (2.5-12.5 mM vanillin, partial disruption), “binds more weakly”.

These data come from paper PMC6882365, “Directed evolution of the PcaV allosteric transcription factor to generate a biosensor for aromatic aldehydes” (Journal of Biological Engineering, 2019).
